Data from PMC6553557.
Results are given in words; binding and its absence hold for the method and conditions named.

The chains behind the UniProt entries cited, without tags or fusion partners. Residues count along the entry.
UniProt P9WIN9, residues 25-228: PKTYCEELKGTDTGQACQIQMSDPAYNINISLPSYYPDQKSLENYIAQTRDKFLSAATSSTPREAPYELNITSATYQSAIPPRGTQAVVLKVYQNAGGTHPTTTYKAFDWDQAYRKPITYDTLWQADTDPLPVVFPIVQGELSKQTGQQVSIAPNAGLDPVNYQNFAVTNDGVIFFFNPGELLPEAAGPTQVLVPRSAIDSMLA

Molecular target: six-histidine (6xHIS)-tagged Mpt64 (Rv1980c) (Mycobacterium tuberculosis) (UniProt P9WIN9)
Test: pull-down; both purified

## hen egg white lysozyme (from UniProt P00698 19-147) (enzyme)
  binding: no binding (tested: 1 mg/ml)

B1: human lysozyme (enzyme, UniProt P61626 19-148)
chain: KVFERCELARTLKRLGMDGYRGISLANWMCLAKWESGYNTRATNYNAGDRSTDYGIFQINSRYWCNDGKTPGAVNACHLSCSALLQDNIADAVACAKRVVRDPQGIRAWVAWRNRCQNRDVRQYVQGCGV
  binding: no binding (tested: 1 mg/ml)
